Test results taken from the supplement of paper PMC4604168 (melanoma cell lines).
This is one part of the list. Many values rest on one well or one pass, so single values are uncertain.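 The apoptosis fraction was the count of cleaved-PARP antibody-stained nuclei relative to all DNA-stained nuclei, imaged in 1,536-well plates. Screening doses were set so most cells survived, and baseline and induced cleaved-PARP levels vary greatly across cell lines.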

Columns and labels:
Assay in all cases: cleaved PARP positive nuclei fraction relative to DMSO control; melanoma cells; higher = more apoptosis
Conditions in all cases: library dose: low library concentration; 72 h
[1] = test system: 501Mel
[2] = test system: A101D
[3] = test system: A2058
[4] = test system: A375
[5] = test system: C32
[6] = test system: CBRC008 (line from a melanoma biopsy)
[7] = test system: CBRC014 (line from a melanoma biopsy)
[8] = test system: CBRC016 (line from a melanoma biopsy)
[9] = test system: CBRC017 (line from a melanoma biopsy)
[10] = test system: CBRC013 (line from a melanoma biopsy)

SMILES | cleaved PARP positive nuclei fraction [1] | cleaved PARP positive nuclei fraction [2] | cleaved PARP positive nuclei fraction [3] | cleaved PARP positive nuclei fraction [4] | cleaved PARP positive nuclei fraction [5] | cleaved PARP positive nuclei fraction [6] | cleaved PARP positive nuclei fraction [7] | cleaved PARP positive nuclei fraction [8] | cleaved PARP positive nuclei fraction [9] | cleaved PARP positive nuclei fraction [10]
O=C(Nc1cc(C(F)(F)F)cc(C(F)(F)F)c1)c1cc(Cl)ccc1O + CN1CCN(c2ccc3nc(-c4c(N)c5c(F)cccc5[nH]c4=O)[nH]c3c2)CC1 [Dovitinib] (first compound 0.016 µM, partner dose 0.1 µM) | 126% | 131% | 158% | 200% | 89.5% | 219% | 234% | 55% | 116% | 
Cc1cn(-c2cc(NC(=O)c3ccc(C)c(Nc4nccc(-c5cccnc5)n4)c3)cc(C(F)(F)F)c2)cn1 [nilotinib] + O=C(O)c1ccc2c(c1)nc(Nc1cccc(Cl)c1)c1ccncc12 [CX4945] (first compound 0.2 µM, partner dose 0.4 µM) | 81.8% | 264% | 155% | 56.8% | 270% | 179% | 110% | 109% | 162% | 
COc1cc([C@@H]2c3cc4c(cc3[C@@H](O[C@@H]3O[C@@H]5CO[C@@H](C)O[C@H]5[C@H](O)[C@H]3O)[C@H]3COC(=O)[C@H]23)OCO4)cc(OC)c1O [etoposide] + CCCCCCCCCCCCCCCCCCOP(=O)([O-])OC1CC[N+](C)(C)CC1 [Perifosine] (first compound 0.02 µM, partner dose 0.4 µM) | 159% | 41.6% | 138% | 52% | 73.6% | 80.1% |  | 39.4% | 102% | 
O=c1[nH]nc(Sc2ncc([N+](=O)[O-])s2)n1-c1ccc2c(c1)OCCO2 + Cc1cn(-c2cc(NC(=O)c3ccc(C)c(Nc4nccc(-c5cccnc5)n4)c3)cc(C(F)(F)F)c2)cn1 [nilotinib] (first compound 0.2 µM, partner dose 0.2 µM) | 136% | 299% | 124% | 61.8% | 92.9% | 195% | 85.4% | 185% | 108% | 
CC[C@]1(O)C[C@H]2CN(CCc3c([nH]c4ccccc34)[C@@](C(=O)OC)(c3cc4c(cc3OC)N(C=O)[C@H]3[C@@](O)(C(=O)OC)[C@H](OC(C)=O)[C@]5(CC)C=CCN6CC[C@]43[C@@H]65)C2)C1 [vincristine] + COc1ccc2c(c1)CCC1C2CCC2(C)C(NCCCCCCN3C(=O)C=CC3=O)CCC12 [U73122] (first compound 0.0001 µM, partner dose 0.4 µM) | 70.1% | 71.2% | 222% |  | 75.3% | 59.3% | 109% | 81.7% | 89.2% | 
COc1cc([C@@H]2c3cc4c(cc3[C@@H](O[C@@H]3O[C@@H]5CO[C@@H](C)O[C@H]5[C@H](O)[C@H]3O)[C@H]3COC(=O)[C@H]23)OCO4)cc(OC)c1O [etoposide] + CC(C)(C)c1cnc(CSc2cnc(NC(=O)C3CCNCC3)s2)o1 [SNS-032] (first compound 0.02 µM, partner dose 0.01 µM) | 229% | 49.5% | 63.3% | 166% |  | 83.1% | 80.5% | 97% | 102% | 109%
CC[C@]1(O)C[C@H]2CN(CCc3c([nH]c4ccccc34)[C@@](C(=O)OC)(c3cc4c(cc3OC)N(C=O)[C@H]3[C@@](O)(C(=O)OC)[C@H](OC(C)=O)[C@]5(CC)C=CCN6CC[C@]43[C@@H]65)C2)C1 [vincristine] + COCC[n+]1c2c(n(Cc3cnccn3)c1C)C(=O)c1ccccc1C2=O [YM155] (first compound 0.0001 µM, partner dose 0.0004 µM) | 80.7% | 91.1% | 288% | 164% | 81.2% | 195% | 94% | 135% | 90.2% | 
Cc1cn(-c2cc(NC(=O)c3ccc(C)c(Nc4nccc(-c5cccnc5)n4)c3)cc(C(F)(F)F)c2)cn1 [nilotinib] + CC(=O)c1c(C)c2cnc(Nc3ccc(N4CCNCC4)cn3)nc2n(C2CCCC2)c1=O [palbociclib] (first compound 0.2 µM, partner dose 0.04 µM) | 94.5% | 124% | 85.8% | 207% | 172% | 65.7% | 125% | 132% | 111% | 
COc1cc([C@@H]2c3cc4c(cc3[C@@H](O[C@@H]3O[C@@H]5CO[C@@H](C)O[C@H]5[C@H](O)[C@H]3O)[C@H]3COC(=O)[C@H]23)OCO4)cc(OC)c1O [etoposide] + COc1cc(N2CCC(N3CCN(C)CC3)CC2)ccc1Nc1ncc(Cl)c(Nc2ccccc2S(=O)(=O)C(C)C)n1 [NVP-TAE684] (first compound 0.02 µM, partner dose 0.08 µM) | 73.4% | 52.6% | 92.6% |  | 84.8% | 158% | 104% | 44% | 727% | 
Cc1cc(Nc2cc(N3CCN(C)CC3)nc(Sc3ccc(NC(=O)C4CC4)cc3)n2)n[nH]1 [Tozasertib] + COc1ccc(COc2ccc(Cc3cnc(N)nc3N)cc2OC)cc1 [GW2580] (first compound 0.006 µM, partner dose 1 µM) | 70.8% | 20.8% | 196% |  | 102% | 86.7% | 99.3% | 54.6% | 106% | 
CC[C@]1(O)C[C@H]2CN(CCc3c([nH]c4ccccc34)[C@@](C(=O)OC)(c3cc4c(cc3OC)N(C=O)[C@H]3[C@@](O)(C(=O)OC)[C@H](OC(C)=O)[C@]5(CC)C=CCN6CC[C@]43[C@@H]65)C2)C1 [vincristine] + CS(=O)(=O)CCNCc1ccc(-c2ccc3ncnc(Nc4ccc(OCc5cccc(F)c5)c(Cl)c4)c3c2)o1 [lapatinib] (first compound 0.0001 µM, partner dose 0.8 µM) | 199% | 224% | 2510% | 1570% | 230% | 162% | 160% | 273% | 138% | 
O=c1[nH]nc(Sc2ncc([N+](=O)[O-])s2)n1-c1ccc2c(c1)OCCO2 + CCN(CC)CCNC(=O)c1c(C)[nH]c(/C=C2\C(=O)Nc3ccc(F)cc32)c1C [sunitinib] (first compound 0.2 µM, partner dose 0.4 µM) | 78.8% | 177% | 172% | 221% | 81.6% | 173% | 95.7% | 242% | 111% | 
O=c1[nH]nc(Sc2ncc([N+](=O)[O-])s2)n1-c1ccc2c(c1)OCCO2 + COc1ccc(COc2ccc(Cc3cnc(N)nc3N)cc2OC)cc1 [GW2580] (first compound 0.2 µM, partner dose 1 µM) | 69.2% | 75.5% | 28.9% |  | 76.8% | 120% | 87.6% | 76.5% | 86.1% | 
N#CC[C@H](C1CCCC1)n1cc(-c2ncnc3[nH]ccc23)cn1 [ruxolitinib] + CC(C)CCN1c2nc(Nc3cc(F)c(O)c(F)c3)ncc2N(C)C(=O)C1C [BID1870] (first compound 1 µM, partner dose 0.2 µM) | 85.6% | 33.8% | 175% |  | 77.6% | 223% | 130% | 195% | 145% | 
COc1cc([C@@H]2c3cc4c(cc3[C@@H](O[C@@H]3O[C@@H]5CO[C@@H](C)O[C@H]5[C@H](O)[C@H]3O)[C@H]3COC(=O)[C@H]23)OCO4)cc(OC)c1O [etoposide] + O=C(O)[C@@H]1[O][Sb](=[O])([O][Sb]2(=[O])[O][C@H]([C@H](O)CO)[C@H](O)[C@H](C(=O)O)[O]2)[O][C@H]([C@H](O)CO)[C@@H]1O [stibogluconate] (first compound 0.02 µM, partner dose 2 µM) | 156% | 289% | 138% | 269% | 84.8% | 115% | 88.3% | 130% | 87.7% | 
O=c1[nH]nc(Sc2ncc([N+](=O)[O-])s2)n1-c1ccc2c(c1)OCCO2 + C[C@@H](Oc1cc(-c2cnn(C3CCNCC3)c2)cnc1N)c1c(Cl)ccc(F)c1Cl [Crizotinib] (first compound 0.2 µM, partner dose 0.2 µM) | 103% | 139% | 85.9% | 87.6% | 244% | 100% | 81.4% | 143% | 101% | 
N#CC[C@H](C1CCCC1)n1cc(-c2ncnc3[nH]ccc23)cn1 [ruxolitinib] + CCCS(=O)(=O)Nc1ccc(F)c(C(=O)c2c[nH]c3ncc(Cl)cc23)c1F [PLX4720] (first compound 1 µM, partner dose 0.08 µM) | 60.8% | 81.9% | 120% | 276% | 101% | 92.6% | 95.8% | 100% | 118% | 
O=C(/C=C/c1cccnc1)NCCCCC1CCN(C(=O)c2ccccc2)CC1 + Clc1ccc(Nc2nnc(Cc3ccncc3)c3ccccc23)cc1 [vatalanib] (first compound 0.01 µM, partner dose 2 µM) | 94.6% | 159% | 145% | 119% | 72.4% | 1680% | 111% | 1010% | 373% | 
Cc1ccc(Nc2nccc(N(C)c3ccc4c(C)n(C)nc4c3)n2)cc1S(N)(=O)=O [Pazopanib] + CN1CCN(c2ccc3nc(-c4c(N)c5c(F)cccc5[nH]c4=O)[nH]c3c2)CC1 [Dovitinib] (first compound 0.4 µM, partner dose 0.1 µM) | 130% | 70.6% | 158% | 86.2% | 78.9% | 132% | 99.7% | 83.9% | 121% | 
N#CC[C@H](C1CCCC1)n1cc(-c2ncnc3[nH]ccc23)cn1 [ruxolitinib] + CS(=O)(=O)c1ccc(C(=O)Nc2ccc(Cl)c(-c3ccccn3)c2)c(Cl)c1 [vismodegib] (first compound 1 µM, partner dose 1 µM) | 113% | 127% | 96.1% | 112% | 121% | 164% | 99.4% | 23.2% | 94.5% | 

For convenience, some entries already given.
SMILES | cleaved PARP positive nuclei fraction [1] | cleaved PARP positive nuclei fraction [2] | cleaved PARP positive nuclei fraction [3] | cleaved PARP positive nuclei fraction [4] | cleaved PARP positive nuclei fraction [5] | cleaved PARP positive nuclei fraction [6] | cleaved PARP positive nuclei fraction [7] | cleaved PARP positive nuclei fraction [8] | cleaved PARP positive nuclei fraction [9] | cleaved PARP positive nuclei fraction [10]
O=c1[nH]nc(Sc2ncc([N+](=O)[O-])s2)n1-c1ccc2c(c1)OCCO2 + Cc1cn(-c2cc(NC(=O)c3ccc(C)c(Nc4nccc(-c5cccnc5)n4)c3)cc(C(F)(F)F)c2)cn1 [nilotinib] (first compound 0.2 µM, partner dose 0.2 µM) | 136% | 299% | 124% | 61.8% | 92.9% | 195% | 85.4% | 185% | 108% | 
CC[C@]1(O)C[C@H]2CN(CCc3c([nH]c4ccccc34)[C@@](C(=O)OC)(c3cc4c(cc3OC)N(C=O)[C@H]3[C@@](O)(C(=O)OC)[C@H](OC(C)=O)[C@]5(CC)C=CCN6CC[C@]43[C@@H]65)C2)C1 [vincristine] + COc1ccc2c(c1)CCC1C2CCC2(C)C(NCCCCCCN3C(=O)C=CC3=O)CCC12 [U73122] (first compound 0.0001 µM, partner dose 0.4 µM) | 70.1% | 71.2% | 222% |  | 75.3% | 59.3% | 109% | 81.7% | 89.2% | 
COc1cc([C@@H]2c3cc4c(cc3[C@@H](O[C@@H]3O[C@@H]5CO[C@@H](C)O[C@H]5[C@H](O)[C@H]3O)[C@H]3COC(=O)[C@H]23)OCO4)cc(OC)c1O [etoposide] + CC(C)(C)c1cnc(CSc2cnc(NC(=O)C3CCNCC3)s2)o1 [SNS-032] (first compound 0.02 µM, partner dose 0.01 µM) | 229% | 49.5% | 63.3% | 166% |  | 83.1% | 80.5% | 97% | 102% | 109%
CC[C@]1(O)C[C@H]2CN(CCc3c([nH]c4ccccc34)[C@@](C(=O)OC)(c3cc4c(cc3OC)N(C=O)[C@H]3[C@@](O)(C(=O)OC)[C@H](OC(C)=O)[C@]5(CC)C=CCN6CC[C@]43[C@@H]65)C2)C1 [vincristine] + COCC[n+]1c2c(n(Cc3cnccn3)c1C)C(=O)c1ccccc1C2=O [YM155] (first compound 0.0001 µM, partner dose 0.0004 µM) | 80.7% | 91.1% | 288% | 164% | 81.2% | 195% | 94% | 135% | 90.2% | 
